Results taken from publication PMC8652205.
These are yes or no findings as the source states them, for the method shown. Binding seen in cells or lysates may run through a third protein. A result given as binding can be weak or reduced; the word gives no strength.

Amino acid sequences for entries named in this document (tags omitted). A change or cut given only in a name is not applied to a line headed by its entry.
UniProt O95229: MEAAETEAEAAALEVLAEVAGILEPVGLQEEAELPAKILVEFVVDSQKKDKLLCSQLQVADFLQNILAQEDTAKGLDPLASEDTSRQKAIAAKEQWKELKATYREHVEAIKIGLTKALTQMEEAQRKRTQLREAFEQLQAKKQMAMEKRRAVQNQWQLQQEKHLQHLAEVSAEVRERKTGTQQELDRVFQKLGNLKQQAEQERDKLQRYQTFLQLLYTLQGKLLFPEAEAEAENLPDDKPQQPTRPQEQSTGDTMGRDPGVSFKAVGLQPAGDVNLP
UniProt Q00987: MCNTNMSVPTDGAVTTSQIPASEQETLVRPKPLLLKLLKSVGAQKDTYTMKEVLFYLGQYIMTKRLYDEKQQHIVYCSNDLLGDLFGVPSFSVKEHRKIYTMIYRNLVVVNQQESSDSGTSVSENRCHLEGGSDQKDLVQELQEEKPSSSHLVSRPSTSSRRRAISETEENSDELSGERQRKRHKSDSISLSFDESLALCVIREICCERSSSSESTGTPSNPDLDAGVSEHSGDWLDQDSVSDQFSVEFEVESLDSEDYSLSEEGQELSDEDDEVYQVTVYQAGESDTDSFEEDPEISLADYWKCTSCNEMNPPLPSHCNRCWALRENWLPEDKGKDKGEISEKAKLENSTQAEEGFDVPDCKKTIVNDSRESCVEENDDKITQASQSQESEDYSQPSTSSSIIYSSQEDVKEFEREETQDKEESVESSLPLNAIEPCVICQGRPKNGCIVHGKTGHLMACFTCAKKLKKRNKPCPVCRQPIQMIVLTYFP

Molecular target: ZW10-interacting kinetochore protein 1 (human (in lysates of human pancreatic cancer cell lines; line not stated for the co-IP)) (UniProt O95229)
Assay: co-IP; anti-ZWINT antibody (1 ug) or anti-rabbit IgG added to protein lysates (500 ug), 4 °C overnight; protein A/G PLUS-Agarose beads 6 h at 4 °C; western blot with anti-p53 and anti-MDM2

binding: binds
Substance: MDM2 (from UniProt Q00987 1-491)
